No constants are given. Whether binding was seen depends on the method and setting. Some entries that bind do so weakly or less than the wild type.

Chains of the proteins cited; added tags and fusions are not shown.
UniProt P33176: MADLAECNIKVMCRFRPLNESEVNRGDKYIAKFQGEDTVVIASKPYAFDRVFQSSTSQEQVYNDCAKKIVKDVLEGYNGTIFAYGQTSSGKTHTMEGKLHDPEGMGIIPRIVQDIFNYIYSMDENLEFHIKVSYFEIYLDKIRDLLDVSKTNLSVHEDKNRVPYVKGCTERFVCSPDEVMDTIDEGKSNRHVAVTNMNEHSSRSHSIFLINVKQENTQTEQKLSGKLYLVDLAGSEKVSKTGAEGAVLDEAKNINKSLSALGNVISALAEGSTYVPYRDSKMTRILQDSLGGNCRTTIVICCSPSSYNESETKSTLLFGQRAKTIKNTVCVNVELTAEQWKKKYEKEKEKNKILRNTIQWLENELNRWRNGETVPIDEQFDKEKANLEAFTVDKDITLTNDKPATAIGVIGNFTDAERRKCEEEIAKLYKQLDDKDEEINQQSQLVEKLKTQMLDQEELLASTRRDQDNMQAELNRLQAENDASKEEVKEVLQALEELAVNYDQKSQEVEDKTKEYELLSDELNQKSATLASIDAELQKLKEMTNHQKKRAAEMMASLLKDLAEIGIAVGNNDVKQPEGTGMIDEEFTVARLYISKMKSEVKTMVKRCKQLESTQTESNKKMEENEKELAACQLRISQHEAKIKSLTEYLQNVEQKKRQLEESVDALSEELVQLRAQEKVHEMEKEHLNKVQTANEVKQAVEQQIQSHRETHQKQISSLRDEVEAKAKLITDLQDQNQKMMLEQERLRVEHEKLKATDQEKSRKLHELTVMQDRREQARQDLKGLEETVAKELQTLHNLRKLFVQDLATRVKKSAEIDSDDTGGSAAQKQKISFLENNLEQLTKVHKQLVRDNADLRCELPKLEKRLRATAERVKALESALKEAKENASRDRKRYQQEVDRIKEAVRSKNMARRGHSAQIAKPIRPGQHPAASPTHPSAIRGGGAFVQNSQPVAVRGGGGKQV

In the assay the target is full-length human kinesin-1 heavy chain (KIF5B-GFP-SNAPf) (human) (UniProt P33176). The experiment in a line: co-IP; purified proteins, 10 µg each, premixed on ice; KIF5B-GFP-SNAPf with TRAK1 1-360 or TRAK2 1-360 on GFP-Trap beads; MB buffer (30 mM HEPES, 5 mM MgSO4, 1 mM EGTA, pH 7.0) with 100 mM NaCl, 1 mg/ml BSA; 2 h on ice; with or without 10 nM MAP7; in Fig. 5b Miro1 1-592 added; both purified.

B1: TRAK2^1–360 (domain or fragment, UniProt O60296 1-360)
chain: MSQSQNAIFTSPTGEENLMNSNHRDSESITDVCSNEDLPEVELVSLLEEQLPQYRLKVDTLFLYENQDWTQSPHQRQHASDALSPVLAEETFRYMILGTDRVEQMTKTYNDIDMVTHLLAERDRDLELAARIGQALLKRNHVLSEQNESLEEQLGQAFDQVNQLQHELCKKDELLRIVSIASEESETDSSCSTPLRFNESFSLSQGLLQLEMLQEKLKELEEENMALRSKACHIKTETVTYEEKEQQLVSDCVKELRETNAQMSRMTEELSGKSDELIRYQEELSSLLSQIVDLQHKLKEHVIEKEELKLHLQASKDAQRQLTMELHELQDRNMECLGMLHESQEEIKELRSRSGPTAHL
modifications: LD555 or LD655 dye on the SNAP-tag in motility assays
For the molecule B1, the binding result was “binds weakly”.

The values above are taken from article PMC10011603.
